# Literature values, collected in patent publication US8338628B2, “Method of synthesizing alkylated bile acid derivatives” (City of Hope, priority 2007, dated 2012).
# At least one structure is not confirmed: it was looked up by name or label, or the drawing left a doubt.
# Target: T1, farnesoid X receptor (FXR) (Homo sapiens, UniProt Q96RI1)
# T1 sequence (Q96RI1 1-486): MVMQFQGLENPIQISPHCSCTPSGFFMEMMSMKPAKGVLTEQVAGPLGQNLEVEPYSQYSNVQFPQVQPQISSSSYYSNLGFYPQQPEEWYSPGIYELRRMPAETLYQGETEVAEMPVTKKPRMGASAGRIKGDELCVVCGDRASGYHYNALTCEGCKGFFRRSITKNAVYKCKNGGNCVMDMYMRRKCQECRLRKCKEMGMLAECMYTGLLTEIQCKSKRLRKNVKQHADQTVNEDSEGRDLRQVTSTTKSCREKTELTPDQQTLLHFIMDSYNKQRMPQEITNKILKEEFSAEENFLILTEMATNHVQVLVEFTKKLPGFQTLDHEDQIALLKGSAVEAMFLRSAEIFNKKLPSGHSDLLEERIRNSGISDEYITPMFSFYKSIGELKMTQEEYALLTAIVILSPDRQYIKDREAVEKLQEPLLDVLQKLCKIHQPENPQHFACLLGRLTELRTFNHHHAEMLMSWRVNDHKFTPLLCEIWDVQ
# Settings: background statement
row,FXR activation (in words),Structure (SMILES)
1,activate FXR,C[C@H](CCC(=O)O)[C@H]1CC[C@H]2[C@@H]3CC[C@@H]4C[C@H](O)CC[C@]4(C)[C@H]3CC[C@]12C [lithocholic acid]
2,activate FXR,C[C@H](CCC(=O)O)[C@H]1CC[C@H]2[C@@H]3CC[C@@H]4C[C@H](O)CC[C@]4(C)[C@H]3C[C@H](O)[C@]12C [deoxycholic acid]
